# The supplement of paper PMC10849652
# Chains of the proteins cited; added tags and fusions are not shown. Lines headed by an entry give the natural chain unless they say otherwise; changes in a name come on top.
# UniProt Q9UBB4: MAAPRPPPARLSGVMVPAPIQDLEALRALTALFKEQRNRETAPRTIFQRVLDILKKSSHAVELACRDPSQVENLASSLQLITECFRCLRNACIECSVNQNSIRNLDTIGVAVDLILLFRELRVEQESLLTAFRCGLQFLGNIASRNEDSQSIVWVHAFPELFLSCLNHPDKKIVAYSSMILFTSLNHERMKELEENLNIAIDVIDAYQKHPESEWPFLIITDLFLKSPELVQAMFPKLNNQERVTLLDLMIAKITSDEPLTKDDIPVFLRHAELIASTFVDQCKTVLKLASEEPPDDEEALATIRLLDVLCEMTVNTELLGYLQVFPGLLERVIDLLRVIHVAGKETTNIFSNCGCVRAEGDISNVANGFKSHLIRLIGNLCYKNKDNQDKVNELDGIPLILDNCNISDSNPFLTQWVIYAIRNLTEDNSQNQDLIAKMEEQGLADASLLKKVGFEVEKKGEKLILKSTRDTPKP
# UniProt Q8N5M1: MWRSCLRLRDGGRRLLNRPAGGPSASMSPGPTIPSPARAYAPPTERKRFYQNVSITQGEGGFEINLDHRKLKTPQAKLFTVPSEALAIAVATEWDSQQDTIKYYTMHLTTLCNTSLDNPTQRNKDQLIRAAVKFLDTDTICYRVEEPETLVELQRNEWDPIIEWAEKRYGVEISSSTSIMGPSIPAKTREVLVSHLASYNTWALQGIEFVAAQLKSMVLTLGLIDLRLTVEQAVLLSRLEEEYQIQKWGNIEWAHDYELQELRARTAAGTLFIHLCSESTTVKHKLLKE
# UniProt Q9Y6H3: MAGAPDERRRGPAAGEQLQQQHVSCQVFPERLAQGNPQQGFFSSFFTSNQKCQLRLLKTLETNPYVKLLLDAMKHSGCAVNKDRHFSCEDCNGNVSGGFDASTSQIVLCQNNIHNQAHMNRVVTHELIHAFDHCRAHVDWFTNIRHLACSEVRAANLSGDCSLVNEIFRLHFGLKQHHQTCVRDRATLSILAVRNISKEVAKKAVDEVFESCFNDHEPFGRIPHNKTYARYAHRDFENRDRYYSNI
# UniProt Q9Y487, whole entry, looked up: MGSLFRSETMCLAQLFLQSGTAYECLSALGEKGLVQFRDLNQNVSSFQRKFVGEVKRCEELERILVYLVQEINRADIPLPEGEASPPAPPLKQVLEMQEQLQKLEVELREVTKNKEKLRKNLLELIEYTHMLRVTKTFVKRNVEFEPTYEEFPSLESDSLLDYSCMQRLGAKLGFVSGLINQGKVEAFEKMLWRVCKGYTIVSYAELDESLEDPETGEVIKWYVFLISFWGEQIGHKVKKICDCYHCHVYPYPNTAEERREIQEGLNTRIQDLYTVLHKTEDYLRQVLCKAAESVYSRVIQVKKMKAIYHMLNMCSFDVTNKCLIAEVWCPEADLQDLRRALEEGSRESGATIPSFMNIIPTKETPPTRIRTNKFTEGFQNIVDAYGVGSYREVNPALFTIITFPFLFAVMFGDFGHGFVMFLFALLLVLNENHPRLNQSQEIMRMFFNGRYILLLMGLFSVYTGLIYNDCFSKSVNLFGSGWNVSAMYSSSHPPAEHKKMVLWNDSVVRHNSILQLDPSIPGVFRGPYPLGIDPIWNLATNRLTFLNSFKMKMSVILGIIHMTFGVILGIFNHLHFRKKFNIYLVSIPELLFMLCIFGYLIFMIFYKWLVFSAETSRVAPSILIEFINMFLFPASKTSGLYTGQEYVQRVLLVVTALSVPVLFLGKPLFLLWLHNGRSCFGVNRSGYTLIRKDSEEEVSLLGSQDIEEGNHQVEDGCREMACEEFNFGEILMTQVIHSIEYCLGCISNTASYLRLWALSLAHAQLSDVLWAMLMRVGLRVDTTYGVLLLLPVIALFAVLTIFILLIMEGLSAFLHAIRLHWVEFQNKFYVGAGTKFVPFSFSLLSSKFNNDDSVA
# UniProt Q8WWM7: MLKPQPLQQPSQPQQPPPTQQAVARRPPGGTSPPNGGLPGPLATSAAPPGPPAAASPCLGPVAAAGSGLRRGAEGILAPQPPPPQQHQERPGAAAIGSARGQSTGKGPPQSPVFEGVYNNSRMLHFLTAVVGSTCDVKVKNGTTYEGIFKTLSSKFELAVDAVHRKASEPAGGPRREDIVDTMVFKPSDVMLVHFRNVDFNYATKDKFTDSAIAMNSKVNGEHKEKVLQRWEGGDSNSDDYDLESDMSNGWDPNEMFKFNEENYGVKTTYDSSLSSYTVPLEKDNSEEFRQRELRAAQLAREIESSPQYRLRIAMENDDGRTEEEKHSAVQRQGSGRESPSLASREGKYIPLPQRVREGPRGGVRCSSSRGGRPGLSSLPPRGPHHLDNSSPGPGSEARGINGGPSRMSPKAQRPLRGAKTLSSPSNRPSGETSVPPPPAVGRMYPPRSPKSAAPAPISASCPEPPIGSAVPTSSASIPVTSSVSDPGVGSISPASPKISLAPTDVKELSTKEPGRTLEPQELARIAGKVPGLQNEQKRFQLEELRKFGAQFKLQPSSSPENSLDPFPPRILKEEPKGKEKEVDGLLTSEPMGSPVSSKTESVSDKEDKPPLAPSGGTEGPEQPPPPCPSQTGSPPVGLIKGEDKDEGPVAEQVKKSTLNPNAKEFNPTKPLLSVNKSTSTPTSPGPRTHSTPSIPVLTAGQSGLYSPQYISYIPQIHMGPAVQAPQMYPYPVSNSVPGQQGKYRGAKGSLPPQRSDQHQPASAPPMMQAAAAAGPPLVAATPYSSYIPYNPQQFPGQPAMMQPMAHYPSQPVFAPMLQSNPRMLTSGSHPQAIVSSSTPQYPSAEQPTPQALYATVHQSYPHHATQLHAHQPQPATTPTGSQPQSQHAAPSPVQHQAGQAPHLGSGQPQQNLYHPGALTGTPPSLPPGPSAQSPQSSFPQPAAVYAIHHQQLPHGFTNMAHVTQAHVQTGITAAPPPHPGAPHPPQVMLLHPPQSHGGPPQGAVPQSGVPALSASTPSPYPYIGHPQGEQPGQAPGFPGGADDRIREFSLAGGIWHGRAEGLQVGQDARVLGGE
# UniProt P35670: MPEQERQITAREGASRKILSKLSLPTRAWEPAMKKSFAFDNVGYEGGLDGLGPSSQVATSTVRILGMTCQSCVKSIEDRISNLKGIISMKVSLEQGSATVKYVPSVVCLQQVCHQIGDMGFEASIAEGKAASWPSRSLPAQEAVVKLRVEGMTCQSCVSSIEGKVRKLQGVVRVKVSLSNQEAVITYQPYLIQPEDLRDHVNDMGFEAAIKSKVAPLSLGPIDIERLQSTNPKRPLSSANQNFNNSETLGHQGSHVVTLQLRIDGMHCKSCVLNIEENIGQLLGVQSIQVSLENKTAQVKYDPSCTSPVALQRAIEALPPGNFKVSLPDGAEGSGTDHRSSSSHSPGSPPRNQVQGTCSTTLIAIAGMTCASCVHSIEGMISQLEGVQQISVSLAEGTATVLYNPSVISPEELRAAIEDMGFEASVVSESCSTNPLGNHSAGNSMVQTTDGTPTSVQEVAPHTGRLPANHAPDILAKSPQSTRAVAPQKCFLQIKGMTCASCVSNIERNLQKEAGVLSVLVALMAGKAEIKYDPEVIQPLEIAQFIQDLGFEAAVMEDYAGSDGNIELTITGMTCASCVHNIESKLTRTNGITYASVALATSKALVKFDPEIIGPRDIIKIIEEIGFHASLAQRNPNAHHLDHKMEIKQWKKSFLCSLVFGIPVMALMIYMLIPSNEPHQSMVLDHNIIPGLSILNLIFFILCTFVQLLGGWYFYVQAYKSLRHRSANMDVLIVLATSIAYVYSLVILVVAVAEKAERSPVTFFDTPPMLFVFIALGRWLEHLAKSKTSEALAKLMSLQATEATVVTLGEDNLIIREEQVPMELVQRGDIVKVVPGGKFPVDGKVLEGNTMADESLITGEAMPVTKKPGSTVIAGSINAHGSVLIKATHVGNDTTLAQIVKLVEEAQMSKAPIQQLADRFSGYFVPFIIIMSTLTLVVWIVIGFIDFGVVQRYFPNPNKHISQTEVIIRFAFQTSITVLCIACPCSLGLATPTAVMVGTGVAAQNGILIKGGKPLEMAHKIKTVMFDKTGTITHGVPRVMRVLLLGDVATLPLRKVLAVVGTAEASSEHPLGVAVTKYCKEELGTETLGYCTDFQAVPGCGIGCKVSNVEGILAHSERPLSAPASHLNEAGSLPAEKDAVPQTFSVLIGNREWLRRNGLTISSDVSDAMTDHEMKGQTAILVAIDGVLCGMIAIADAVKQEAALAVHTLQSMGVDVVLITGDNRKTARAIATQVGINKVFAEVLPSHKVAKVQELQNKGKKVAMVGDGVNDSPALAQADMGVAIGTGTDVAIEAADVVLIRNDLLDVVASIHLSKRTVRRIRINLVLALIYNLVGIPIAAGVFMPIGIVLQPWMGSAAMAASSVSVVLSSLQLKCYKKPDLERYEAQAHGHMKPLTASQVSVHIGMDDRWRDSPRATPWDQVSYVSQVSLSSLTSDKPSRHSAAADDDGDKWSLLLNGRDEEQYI
# UniProt P24539: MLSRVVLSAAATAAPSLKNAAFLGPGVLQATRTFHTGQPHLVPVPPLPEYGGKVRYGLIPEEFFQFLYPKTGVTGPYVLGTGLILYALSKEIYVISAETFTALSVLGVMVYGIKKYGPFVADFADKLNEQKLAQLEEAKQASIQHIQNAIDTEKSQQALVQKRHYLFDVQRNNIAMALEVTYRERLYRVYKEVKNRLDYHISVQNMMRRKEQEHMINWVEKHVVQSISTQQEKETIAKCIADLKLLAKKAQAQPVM
# UniProt Q9NVI7: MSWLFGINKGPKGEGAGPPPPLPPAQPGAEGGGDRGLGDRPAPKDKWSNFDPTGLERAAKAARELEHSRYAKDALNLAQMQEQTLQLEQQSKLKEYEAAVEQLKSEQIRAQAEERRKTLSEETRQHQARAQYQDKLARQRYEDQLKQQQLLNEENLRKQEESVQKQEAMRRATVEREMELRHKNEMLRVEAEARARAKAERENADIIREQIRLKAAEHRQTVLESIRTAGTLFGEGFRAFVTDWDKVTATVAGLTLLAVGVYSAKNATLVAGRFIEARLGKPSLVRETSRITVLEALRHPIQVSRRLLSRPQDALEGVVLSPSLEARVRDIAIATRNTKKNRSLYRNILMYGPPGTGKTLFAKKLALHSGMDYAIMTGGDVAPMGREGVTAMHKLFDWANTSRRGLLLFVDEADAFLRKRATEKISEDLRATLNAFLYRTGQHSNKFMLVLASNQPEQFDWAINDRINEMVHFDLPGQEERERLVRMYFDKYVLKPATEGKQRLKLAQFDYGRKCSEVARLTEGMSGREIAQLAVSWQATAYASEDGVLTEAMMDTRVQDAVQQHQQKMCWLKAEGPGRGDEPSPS
# The list shows a part of the results.
# Experiments:
# Assay in all cases: log2 fold change, soluble protein after heating vs DMSO (PISA); higher = thermal stabilisation; K562 lysate, 10 uM; active = over 0.2 and 3.5 SD of the protein, either way, in both replicates (recomputed)
# lapatinib = compound: CS(=O)(=O)CCNCc1ccc(-c2ccc3ncnc(Nc4ccc(OCc5cccc(F)c5)c(Cl)c4)c3c2)o1 [lapatinib]
# Procedure, shortened: (§1)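 Following dounce homogenisation of K562 pellets in PBS pH 7.4 with 1 mM MgCl2, crude extract at 1 mg/mL protein was incubated for 30 min with 10 μM compound. Aliquots were then heated for 3 min over 48°C-58°C and pooled, NP-40 was added to 0.5% at 4°C, and soluble protein was recovered as the supernatant at 21,000xg for 90 min. Channel-sum-equalised TMTpro 16plex LC-MS/MS quantified this protein. Each value, from duplicates, is a log-two fold change in thermal stability relative to solvent controls.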
# pictilisib = compound: CS(=O)(=O)N1CCN(Cc2cc3nc(-c4cccc5[nH]ncc45)nc(N4CCOCC4)c3s2)CC1 [pictilisib]
# Procedure, shortened: as §1
# crizotinib = compound: C[C@@H](Oc1cc(-c2cnn(C3CCNCC3)c2)cnc1N)c1c(Cl)ccc(F)c1Cl [crizotinib]
# Procedure, shortened: as §1
# [1] = compound: C[C@H](C1=CC=C(C=C1)C(=O)NC2=C3C=CNC3=NC=C2)N
# Procedure, shortened: as §1
# duvelisib = compound: C[C@H](Nc1ncnc2nc[nH]c12)c1cc2cccc(Cl)c2c(=O)n1-c1ccccc1 [duvelisib]
# Procedure, shortened: as §1
# gandotinib = compound: Cc1cc(Nc2cc(CN3CCOCC3)c3nc(C)c(Cc4ccc(Cl)cc4F)n3n2)n[nH]1 [gandotinib]
# Procedure, shortened: as §1
# tozasertib = compound: Cc1cc(Nc2cc(N3CCN(C)CC3)nc(Sc3ccc(NC(=O)C4CC4)cc3)n2)n[nH]1 [tozasertib]
# Procedure, shortened: as §1
# doramapimod = compound: Cc1ccc(-n2nc(C(C)(C)C)cc2NC(=O)Nc2ccc(OCCN3CCOCC3)c3ccccc23)cc1 [doramapimod]
# Procedure, shortened: as §1
# bafetinib = compound: Cc1ccc(NC(=O)c2ccc(CN3CC[C@H](N(C)C)C3)c(C(F)(F)F)c2)cc1Nc1nccc(-c2cncnc2)n1 [bafetinib]
# Procedure, shortened: as §1
# [2] = compound: Cc1cccc(CC(=O)N2CCc3c2ccc(-c2cn(C)c4ncnc(N)c24)c3F)n1
# Procedure, shortened: as §1
# nilotinib = compound: Cc1cn(-c2cc(NC(=O)c3ccc(C)c(Nc4nccc(-c5cccnc5)n4)c3)cc(C(F)(F)F)c2)cn1 [nilotinib]
# Procedure, shortened: as §1
# [3] = compound: Cc1nc(Nc2n[nH]c3c2CN(C(=O)N[C@H](CN(C)C)c2ccccc2)C3(C)C)c2sccc2n1
# Procedure, shortened: as §1
# dasatinib = compound: Cc1nc(Nc2ncc(C(=O)Nc3c(C)cccc3Cl)s2)cc(N2CCN(CCO)CC2)n1 [dasatinib]
# Procedure, shortened: as §1
# [4] = compound: Cc1ncc(-c2ccnc(Nc3ccc(S(C)(=O)=O)cc3)n2)n1C(C)C
# Procedure, shortened: as §1
# [5] = compound: Cn1cc(-c2ccc3c(c2)CCN3C(=O)Cc2cccc(C(F)(F)F)c2)c2c(N)ncnc21
# Procedure, shortened: as §1
# quisinostat = compound: Cn1cc(CNCC2CCN(c3ncc(C(=O)NO)cn3)CC2)c2ccccc21 [quisinostat]
# Procedure, shortened: as §1
# tipifarnib = compound: Cn1cncc1[C@@](N)(c1ccc(Cl)cc1)c1ccc2c(c1)c(-c1cccc(Cl)c1)cc(=O)n2C [tipifarnib]
# Procedure, shortened: as §1
# [6] = compound: NC(=O)Nc1cc(-c2cccc(F)c2)sc1C(=O)N[C@H]1CCCNC1
# Procedure, shortened: as §1
# [7] = compound: NC(=O)c1cnc(N[C@@H]2CCCC[C@@H]2N)nc1Nc1cccc(-n2nccn2)c1
# Procedure, shortened: as §1
# [8] = compound: NC1(c2ccc(-c3nc4ccn5c(=O)[nH]nc5c4cc3-c3ccccc3)cc2)CCC1
# Procedure, shortened: as §1
Target,log2 fold change (lapatinib),log2 fold change (pictilisib),log2 fold change (crizotinib),log2 fold change [1],log2 fold change (duvelisib),log2 fold change (gandotinib),log2 fold change (tozasertib),log2 fold change (doramapimod),log2 fold change (bafetinib),log2 fold change [2],log2 fold change (nilotinib),log2 fold change [3],log2 fold change (dasatinib),log2 fold change [4],log2 fold change [5],log2 fold change (quisinostat),log2 fold change (tipifarnib),log2 fold change [6],log2 fold change [7],log2 fold change [8]
ATXN10 (UniProt Q9UBB4),inactive: -0.012,inactive: -0.027,inactive: 0.014,inactive: 0.055,inactive: 0.035,inactive: -0.049,inactive: 0.005,inactive: -0.029,inactive: -0.01,inactive: -0.018,inactive: -0.001,inactive: -0.022,inactive: -0.01,inactive: -0.011,inactive: 0.026,inactive: 0.007,inactive: 0.016,inactive: -0.002,inactive: 0.01,inactive: 0.01
ATPAF2 (UniProt Q8N5M1),inactive: -0.028,inactive: 0.031,inactive: -0.066,inactive: -0.229,inactive: 0.042,inactive: 0.075,inactive: -0.034,inactive: -0.007,inactive: -0.057,inactive: 0.103,inactive: -0.034,inactive: 0.056,inactive: -0.008,inactive: 0.1,inactive: 0.001,inactive: -0.152,inactive: 0.019,inactive: 0.033,inactive: 0.005,inactive: 0
ATP23 (UniProt Q9Y6H3),inactive: -0.042,inactive: -0.054,inactive: 0.073,inactive: 0.134,inactive: 0.009,inactive: -0.216,inactive: 0.01,inactive: 0,inactive: 0.058,inactive: -0.055,inactive: -0.019,inactive: 0.006,inactive: -0.016,inactive: -0.01,inactive: -0.032,inactive: 0.171,inactive: 0.002,inactive: -0.011,inactive: 0.03,inactive: 0.016
ATP6V0A2 (UniProt Q9Y487),inactive: -0.07,inactive: -0.047,inactive: -0.016,active: -0.227,inactive: 0.026,inactive: 0.108,inactive: 0.004,inactive: 0.023,inactive: -0.046,inactive: 0.13,inactive: 0.034,inactive: -0.008,inactive: -0.028,inactive: 0.027,inactive: 0.003,inactive: -0.065,inactive: -0.033,inactive: -0.011,inactive: 0.001,inactive: -0.001
ATXN2L isoform 3 (UniProt Q8WWM7),inactive: 0.023,inactive: -0.004,inactive: 0.038,inactive: -0.022,inactive: 0.014,inactive: 0.006,inactive: -0.016,inactive: 0.013,inactive: 0.002,inactive: 0.003,inactive: -0.033,inactive: 0.019,inactive: -0.045,inactive: -0.005,inactive: 0.004,inactive: -0.018,inactive: -0.015,inactive: 0.011,inactive: 0.014,inactive: 0.006
ATP7B (UniProt P35670),inactive: 0.133,inactive: -0.06,inactive: -0.025,inactive: -0.059,inactive: -0.011,inactive: 0.039,inactive: -0.071,inactive: 0.044,inactive: -0.065,inactive: 0.033,inactive: 0.162,inactive: -0.005,inactive: 0.165,inactive: -0.049,inactive: -0.004,inactive: -0.008,inactive: 0.079,inactive: 0.035,inactive: -0.006,inactive: -0.038
ATP5PB (UniProt P24539),inactive: -0.033,inactive: -0.019,inactive: 0.048,inactive: 0.032,inactive: -0.002,inactive: -0.019,inactive: -0.018,inactive: -0.033,inactive: 0.024,inactive: -0.036,inactive: 0.004,inactive: -0.017,inactive: 0.037,inactive: 0.009,inactive: 0,inactive: 0.036,inactive: 0.026,inactive: -0.042,inactive: 0.004,inactive: 0.02
ATAD3A (UniProt Q9NVI7),inactive: -0.016,inactive: -0.082,inactive: -0.049,inactive: 0.096,inactive: 0.037,inactive: -0.184,inactive: -0.088,inactive: 0.004,inactive: -0.142,inactive: -0.055,inactive: 0.018,inactive: 0.112,inactive: -0.008,inactive: 0.007,inactive: 0.011,inactive: -0.025,inactive: -0.018,inactive: 0.088,inactive: -0.054,inactive: 0.003
